# Values joined by “and” are separate entries in the source; they are usually repeats but may differ in a detail not shown here. Equal entries are not always repeated. The list shows a part of the results.
# Columns and labels:
# Assay in all cases: protein microarray (ProtoArray v5.0), streptavidin-Alexa Fluor 647
# Conditions in all cases: 3'-biotin; 20 mM Tris (pH 7.5), 5 mM MgCl2, 100 mM KCl, 0.1% Tween-20, A/T-rich and random oligonucleotide blockers; temperature not stated; high values mean tight binding
# [1] = tested on: FXYD1 (human)
# [2] = tested on: FXYD2 (human)
# [3] = tested on: FXYD5 (human)
# [4] = tested on: FXYD7 (human)
# [5] = tested on: FYCO1 (human)
# [6] = tested on: FYVE, RhoGEF and PH domain-containing protein 2 (human)
# [7] = tested on: Ferritin heavy chain (human)
# [8] = tested on: Fibroblast growth factor receptor 2 (human)
# [9] = tested on: G1/S-specific cyclin-D1 (human)
# [10] = tested on: G6PC (human)
# [11] = tested on: G6PD (human)
# [12] = tested on: GA-binding protein subunit beta-1 (human)
# [13] = tested on: GABPA (human)
# [14] = tested on: GABPB2 (human)
# [15] = tested on: GADD45G (human)
# [16] = tested on: GAL (human)
# [17] = tested on: GALE (human)
# [18] = tested on: GALK1 (human)
# [19] = tested on: GALNT12 (human)
# [20] = tested on: GAMT (human)
sequence,measurement,setting,value
GGGAGGCTGAGGCAGG [G4-1 biotinylated (PQS2)],binding signal,[1],-0.331 z-score
same,binding signal,[2],-0.318 z-score
same,binding signal,[3],-0.329 z-score
same,binding signal,[4],-0.334 z-score
same,binding signal,[5],-0.339 z-score
same,binding signal,[6],-0.358 z-score
same,binding signal,[7],-0.356 z-score
same,binding signal,[8],-0.274 z-score and -0.31 z-score
same,binding signal,[9],-0.354 z-score
same,binding signal,[10],-0.338 z-score
same,binding signal,[11],-0.323 z-score
same,binding signal,[12],-0.358 z-score
same,binding signal,[13],-0.363 z-score
same,binding signal,[14],-0.352 z-score and -0.358 z-score
same,binding signal,[15],-0.308 z-score
same,binding signal,[16],-0.275 z-score
same,binding signal,[17],-0.324 z-score
same,binding signal,[18],-0.319 z-score
same,binding signal,[19],-0.306 z-score
same,binding signal,[20],-0.334 z-score

# Some of the entries so far, with bars between the fields:
sequence | measurement | setting | value
GGGAGGCTGAGGCAGG [G4-1 biotinylated (PQS2)] | binding signal | [11] | -0.323 z-score
same | binding signal | [12] | -0.358 z-score
same | binding signal | [13] | -0.363 z-score
same | binding signal | [14] | -0.352 z-score and -0.358 z-score
same | binding signal | [15] | -0.308 z-score
